This is an account of results in article PMC6470148.

No constants are given. Whether binding was seen depends on the method and setting. In cells and extracts the contact can be indirect. Binding calls can cover weak binding; strength is not graded here. Tags and fused reporters may be left off the sequences shown.

The assay deals with T1, HA-tagged TRAF6 (UniProt P70196).
T1 sequence: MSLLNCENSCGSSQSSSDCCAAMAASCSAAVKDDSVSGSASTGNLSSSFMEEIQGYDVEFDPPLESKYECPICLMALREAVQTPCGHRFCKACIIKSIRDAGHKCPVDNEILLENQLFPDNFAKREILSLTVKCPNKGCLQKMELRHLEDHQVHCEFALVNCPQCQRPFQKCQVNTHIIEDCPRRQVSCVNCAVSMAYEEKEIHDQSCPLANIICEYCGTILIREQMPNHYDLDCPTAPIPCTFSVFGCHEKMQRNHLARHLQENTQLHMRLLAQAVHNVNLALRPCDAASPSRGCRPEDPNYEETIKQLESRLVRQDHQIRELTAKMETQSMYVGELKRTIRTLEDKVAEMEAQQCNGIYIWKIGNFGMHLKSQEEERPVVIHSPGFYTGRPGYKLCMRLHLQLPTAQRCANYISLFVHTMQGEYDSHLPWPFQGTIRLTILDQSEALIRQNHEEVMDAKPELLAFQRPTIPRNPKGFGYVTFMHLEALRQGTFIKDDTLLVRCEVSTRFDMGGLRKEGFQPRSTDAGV
Nature of the assay: co-IP; HEK293T cells transfected with tagged constructs; lysates precipitated with anti-Flag or anti-HA antibody and protein A/G beads, western blot.

Turning to “Flag-tagged MVP α-helical domain (686–870) (domain or fragment)”, the binding entry is recorded as “binds”.
